According to article PMC7898450:
Where a chain is given by its changes, count along the chain named. Results are given in words; binding and its absence hold for the method and conditions named. In cells and extracts the contact can be indirect. Some entries that bind do so weakly or less than the wild type. Tags and fused reporters may be left off the sequences shown.

Chains of the proteins cited; added tags and fusions are not shown.
UniProt Q14247: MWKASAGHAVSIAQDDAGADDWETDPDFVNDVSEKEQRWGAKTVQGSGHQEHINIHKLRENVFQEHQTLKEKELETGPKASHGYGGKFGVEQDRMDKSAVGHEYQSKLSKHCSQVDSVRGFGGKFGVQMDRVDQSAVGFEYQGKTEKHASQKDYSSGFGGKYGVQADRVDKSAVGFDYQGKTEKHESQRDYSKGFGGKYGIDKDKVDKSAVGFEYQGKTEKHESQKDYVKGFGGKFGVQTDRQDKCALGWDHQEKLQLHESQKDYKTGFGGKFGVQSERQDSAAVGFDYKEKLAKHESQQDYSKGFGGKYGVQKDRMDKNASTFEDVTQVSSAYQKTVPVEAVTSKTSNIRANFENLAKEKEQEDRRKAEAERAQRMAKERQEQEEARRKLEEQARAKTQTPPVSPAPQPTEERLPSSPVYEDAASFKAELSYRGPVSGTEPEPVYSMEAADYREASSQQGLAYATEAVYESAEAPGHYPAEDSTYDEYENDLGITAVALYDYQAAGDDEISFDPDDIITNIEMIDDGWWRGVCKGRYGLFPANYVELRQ

Columns and labels:
Experiment in all cases: co-IP; GFP-nanotrap beads on whole-cell lysates of transfected HEK 293T cells (GFP-fused L-plastin constructs as bait), 2 h at 4 °C, 150 mM NaCl, 0.5 mM EDTA, pH 7.5; cells treated with or without 0.1 µM PMA for 1 h; endogenous cortactin detected by immunoblot
L-plastinS5E-GFP = molecular target: T1, L-plastinS5E-GFP (UniProt P13796)
T1 sequence: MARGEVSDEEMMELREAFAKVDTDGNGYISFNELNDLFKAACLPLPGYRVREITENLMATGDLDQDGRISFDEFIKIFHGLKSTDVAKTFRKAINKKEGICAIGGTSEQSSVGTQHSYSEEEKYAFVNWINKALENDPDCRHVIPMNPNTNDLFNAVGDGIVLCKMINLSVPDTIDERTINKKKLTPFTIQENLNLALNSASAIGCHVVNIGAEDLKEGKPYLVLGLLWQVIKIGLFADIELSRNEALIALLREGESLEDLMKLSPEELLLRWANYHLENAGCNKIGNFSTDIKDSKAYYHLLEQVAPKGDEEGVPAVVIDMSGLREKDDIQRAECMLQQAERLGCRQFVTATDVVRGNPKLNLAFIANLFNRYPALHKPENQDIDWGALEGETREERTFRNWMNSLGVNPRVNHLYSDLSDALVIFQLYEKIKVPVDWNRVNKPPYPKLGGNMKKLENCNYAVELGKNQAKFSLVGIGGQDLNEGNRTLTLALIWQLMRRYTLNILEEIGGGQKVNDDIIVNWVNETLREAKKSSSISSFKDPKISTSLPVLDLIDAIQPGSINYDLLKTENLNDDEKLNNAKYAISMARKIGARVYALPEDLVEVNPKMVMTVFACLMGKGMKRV

L-plastinWT-GFP = molecular target: T2, L-plastinWT-GFP (UniProt P13796)
T2 sequence: T1 sequence with E5S

L-plastinS5A-GFP = molecular target: T3, L-plastinS5A-GFP (UniProt P13796)
T3 sequence: T1 sequence with E5A

binding (L-plastinS5E-GFP): binds
binding (L-plastinWT-GFP): binds
binding (L-plastinS5A-GFP): binds
Substance: cortactin (from UniProt Q14247 1-550)
